Results: ChEMBL document CHEMBL4316593 (Eur J Med Chem, 2019)
This continues a long series; more values of the same kind are listed elsewhere.

Columns and labels:
Type in all cases: cell-based
Conditions in all cases: U-87MG ATCC
[1] = Inhibition of RTK/PI3K/AKT/mTOR signaling in human U87 cells assessed as up regulation of IKBKB interacting protein gene expression at cytotoxic IC50 measured after 48 hrs relative to control
[2] = Inhibition of RTK/PI3K/AKT/mTOR signaling in human U87 cells assessed as down regulation of KIF21A gene expression at cytotoxic IC50 measured after 48 hrs relative to control
[3] = Inhibition of RTK/PI3K/AKT/mTOR signaling in human U87 cells assessed as up regulation of BR serine/threonine kinase 2 gene expression at cytotoxic IC50 measured after 48 hrs relative to control
[4] = Inhibition of RTK/PI3K/AKT/mTOR signaling in human U87 cells assessed as down regulation of DIAPH1 gene expression at cytotoxic IC50 measured after 48 hrs relative to control
[5] = Inhibition of RTK/PI3K/AKT/mTOR signaling in human U87 cells assessed as up regulation of EMI domain containing 1 gene expression at cytotoxic IC50 measured after 48 hrs relative to control
[6] = Inhibition of RTK/PI3K/AKT/mTOR signaling in human U87 cells assessed as down regulation of TRMT112 gene expression at cytotoxic IC50 measured after 48 hrs relative to control
[7] = Inhibition of RTK/PI3K/AKT/mTOR signaling in human U87 cells assessed as up regulation of BST2 gene expression at cytotoxic IC50 measured after 48 hrs relative to control
[8] = Inhibition of RTK/PI3K/AKT/mTOR signaling in human U87 cells assessed as up regulation of NEBL gene expression at cytotoxic IC50 measured after 48 hrs relative to control
[9] = Inhibition of RTK/PI3K/AKT/mTOR signaling in human U87 cells assessed as up regulation of CAP-Gly domain containing linker protein family member 4 gene expression at cytotoxic IC50 measured after 48 hrs relative to control
[10] = Inhibition of RTK/PI3K/AKT/mTOR signaling in human U87 cells assessed as down regulation of PEPD gene expression at cytotoxic IC50 measured after 48 hrs relative to control
[11] = Inhibition of RTK/PI3K/AKT/mTOR signaling in human U87 cells assessed as down regulation of NPLOC4 gene expression at cytotoxic IC50 measured after 48 hrs relative to control
[12] = Inhibition of RTK/PI3K/AKT/mTOR signaling in human U87 cells assessed as down regulation of PIGK gene expression at cytotoxic IC50 measured after 48 hrs relative to control
[13] = Inhibition of RTK/PI3K/AKT/mTOR signaling in human U87 cells assessed as up regulation of SEMA3A gene expression at cytotoxic IC50 measured after 48 hrs relative to control
[14] = Inhibition of RTK/PI3K/AKT/mTOR signaling in human U87 cells assessed as down regulation of TRIM23 gene expression at cytotoxic IC50 measured after 48 hrs relative to control
[15] = Inhibition of RTK/PI3K/AKT/mTOR signaling in human U87 cells assessed as down regulation of GSTO1 gene expression at cytotoxic IC50 measured after 48 hrs relative to control
[16] = Inhibition of RTK/PI3K/AKT/mTOR signaling in human U87 cells assessed as down regulation of MBD1 gene expression at cytotoxic IC50 measured after 48 hrs relative to control
[17] = Inhibition of RTK/PI3K/AKT/mTOR signaling in human U87 cells assessed as up regulation of t-complex 11 like 2 gene expression at cytotoxic IC50 measured after 48 hrs relative to control
[18] = Inhibition of RTK/PI3K/AKT/mTOR signaling in human U87 cells assessed as down regulation of EMC3 gene expression at cytotoxic IC50 measured after 48 hrs relative to control
[19] = Inhibition of RTK/PI3K/AKT/mTOR signaling in human U87 cells assessed as down regulation of ZER1 gene expression at cytotoxic IC50 measured after 48 hrs relative to control
[20] = Inhibition of RTK/PI3K/AKT/mTOR signaling in human U87 cells assessed as down regulation of PIKFYVE gene expression at cytotoxic IC50 measured after 48 hrs relative to control
[21] = Inhibition of RTK/PI3K/AKT/mTOR signaling in human U87 cells assessed as down regulation of ATG13 gene expression at cytotoxic IC50 measured after 48 hrs relative to control
[22] = Inhibition of RTK/PI3K/AKT/mTOR signaling in human U87 cells assessed as up regulation of ankyrin repeat domain 11 gene expression at cytotoxic IC50 measured after 48 hrs relative to control
[23] = Inhibition of RTK/PI3K/AKT/mTOR signaling in human U87 cells assessed as up regulation of TEF, PAR bZIP transcription factor gene expression at cytotoxic IC50 measured after 48 hrs relative to control
[24] = Inhibition of RTK/PI3K/AKT/mTOR signaling in human U87 cells assessed as up regulation of transducin beta like 1X-linked gene expression at cytotoxic IC50 measured after 48 hrs relative to control
[25] = Inhibition of RTK/PI3K/AKT/mTOR signaling in human U87 cells assessed as down regulation of IRF7 gene expression at cytotoxic IC50 measured after 48 hrs relative to control
[26] = Inhibition of RTK/PI3K/AKT/mTOR signaling in human U87 cells assessed as down regulation of HMGB2 gene expression at cytotoxic IC50 measured after 48 hrs relative to control
[27] = Inhibition of RTK/PI3K/AKT/mTOR signaling in human U87 cells assessed as up regulation of KN motif and ankyrin repeat domains 3 gene expression at cytotoxic IC50 measured after 48 hrs relative to control
[28] = Inhibition of RTK/PI3K/AKT/mTOR signaling in human U87 cells assessed as down regulation of DNAJC1 gene expression at cytotoxic IC50 measured after 48 hrs relative to control
[29] = Inhibition of RTK/PI3K/AKT/mTOR signaling in human U87 cells assessed as down regulation of ZNF845 gene expression at cytotoxic IC50 measured after 48 hrs relative to control
[30] = Inhibition of RTK/PI3K/AKT/mTOR signaling in human U87 cells assessed as down regulation of ZC2HC1A gene expression at cytotoxic IC50 measured after 48 hrs relative to control
[31] = Inhibition of RTK/PI3K/AKT/mTOR signaling in human U87 cells assessed as up regulation of NADH dehydrogenase, subunit 1 (complex I) gene expression at cytotoxic IC50 measured after 48 hrs relative to control
[32] = Inhibition of RTK/PI3K/AKT/mTOR signaling in human U87 cells assessed as down regulation of EXT2 gene expression at cytotoxic IC50 measured after 48 hrs relative to control

## CC(=O)C(=NNc1ccccc1C#N)C(C)=O
[1]
  log2FC: 0.864
[2]
  log2FC: -1.12
[3]
  log2FC: 0.979
[4]
  log2FC: -0.364
[5]
  log2FC: 1.09
[6]
  log2FC: -0.609
[7]
  log2FC: 2.48
[8]
  log2FC: 0.646
[9]
  log2FC: 0.843
[10]
  log2FC: -0.873
[11]
  log2FC: -0.516
[12]
  log2FC: -0.958
[13]
  log2FC: 2.04
[14]
  log2FC: -1.18
[15]
  log2FC: -0.617
[16]
  log2FC: -0.527
[17]
  log2FC: 1.46
[18]
  log2FC: -0.845
[19]
  log2FC: -0.762
[20]
  log2FC: -0.618
[21]
  log2FC: -0.49
[22]
  log2FC: 0.858
[23]
  log2FC: 0.913
[24]
  log2FC: 0.986
[25]
  log2FC: -1.44
[26]
  log2FC: -1.28
[27]
  log2FC: 1.41
[28]
  log2FC: -0.701
[29]
  log2FC: -1.61
[30]
  log2FC: -0.897
[31]
  log2FC: 0.975
[32]
  log2FC: -0.8
